Library screen at single concentrations

From ChEMBL document CHEMBL3988442, “University of Dundee, Small-Polar-MMV Screening Library” (2021).

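Whole-parasite assay of Trypanosoma brucei over 72 hours; the read-out is not stated. Compounds at 30 µM. The record gives no direction; compounds that gave an IC50 in retests scored well above the rest, so higher reads as stronger inhibition. Values scatter widely below zero; nearly all retest evidence comes from the higher of the two concentrations used. Of about 64,000 compounds tested this way, about 940 (1.5%) reached 50% or more in at least one test.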

Each number is a percent effect as filed.
How 0% and 100% were set is not recorded. Most values in the screen are low, and negative values occur.
Compounds were drawn at random from those tested, without regard to their results.

Compound,Percent Effect
Cc1occc1C(=O)N1CC[C@@H](N2CCOCC2)[C@@H]1Cc1ccccc1,21.57
COC(=O)c1cc(NC2CCN(CC(F)(F)F)C2=O)ccc1C (centres undefined),-3.339
CCN(CC)C(=O)Cn1nc(C(C)C)c2cnn(C(C)(C)C)c2c1=O,-8.979
Cn1cc(-c2cnc(N3CCOCC3)nc2)cc1C(=O)NCCC#N.O=C(O)C(F)(F)F,-9.163
O=C1NCCN2CCN(C(=O)NCCc3ccccc3)CC12 (centres undefined),-20.3
NC(=O)CSc1ccccc1NCc1nc(Cc2ccccc2)no1,-39.09
CN(C)C(=O)C1(CCCc2ccncc2)CCCN1 (centres undefined),-15.34
CCn1c(CN2CCCC(O)(c3ccc(F)cc3)CC2)cnc1SC.O=C(O)CC(O)(CC(=O)O)C(=O)O (centres undefined),-0.3019
[H][C@@]12C[C@H](C)O[C@@]1([H])CCN(C(=O)COC)C2,51.97
CCn1nc(C)c(NC(=O)CN2CC[C@H](CO)[C@@H](O)C2)c1C,-29.26
CN(C)c1cccc(C(=O)Nc2cn(C)c(=O)n(C)c2=O)c1,-15.76
O=C(O)C(F)(F)F.O=C(O)C(F)(F)F.c1cncc(OCC2CC3(CCN(CC4CC4)CC3)CO2)c1 (centres undefined),-12.31
CC(=O)N(Cc1ncc(C)o1)C1CCN(Cc2ccncc2Cl)C1 (centres undefined),-8.897
CC(C)(C)NC(=O)NC(=O)COc1nc(C(C)(C)C)no1,-102.3
CN1CCC(Nc2ccc(F)cc2OCC(F)(F)F)C1=O (centres undefined),-50.32
Cc1cc(C(F)(F)F)c2c(=O)n(Cc3ccon3)n(C)c2n1,-0.7194
CN1CCCN(C[C@@H]2CN(C(=O)CC3CCC3)C[C@@H]2CO)CC1,0.3336
CCNc1ncc(C(=O)NC2COC3(CCCC3)C2)cn1 (centres undefined),10.86
[H][C@]12CC[C@]([H])(CN(C(=O)c3cscn3)C1)N(Cc1c(C)noc1C)C2=O,11.45
CCC(O)Cn1nc(CCSC)nc1-c1ccc2[nH]ccc2c1 (centres undefined),-83.2
Cc1cc(NCCN2CCNC2=O)nc2cc3c(cc12)CCC3,101.3
Cc1nn(C)c(C)c1C1CCCN1C(=O)c1cnc2onc(C)c2c1 (centres undefined),5.441
N#Cc1ccc(OC2CCN(CC(=O)NCC3CCCO3)CC2)cc1 (centres undefined),-634.3
O=C(O)c1ccc(CC2CCN(S(=O)(=O)N3CCOCC3)C2)cc1 (centres undefined),-36.29
Cc1nccc(CNS(=O)(=O)N(C)Cc2ccc(Cl)cc2)n1,-10.62
Cn1cc(CCNC(=O)C2(c3cccc(Cl)c3)CC2)cn1,-20.58
CN(CCN(C)S(=O)(=O)CC1CCOCC1)c1ccccc1,-22.73
CC(CS(C)(=O)=O)N(C(=O)Nc1ccc(F)cc1F)C1CC1 (centres undefined),12.4
O=C1CSC(c2ccc(O)cc2)c2c(n(C3CCOCC3)[nH]c2=O)N1 (centres undefined),-25.12
CC(Cc1cncs1)Nc1ncnc2cccc(F)c12 (centres undefined),-11.31
O=C(CCNC(=O)c1ccccc1N1CCOCC1)NC1CCCC1,1.361
COc1cccc(N2CCN(C(=O)C(O)c3cccc(Cl)c3)CC2=O)c1 (centres undefined),-17.54
Cc1cc(NC(C)Cc2cccs2)n2nccc2n1 (centres undefined),20.56
CC(O)CN1CCN(Cc2coc(-c3ccccc3)n2)CC1 (centres undefined),-81.57
CC(C)(C)C(=O)N1CCC(c2noc(C3CCC(=O)N3)n2)CC1 (centres undefined),4.6
CN(Cc1ccsc1)C(=O)CN1CCc2c(ncn2C)C1,-62.83
Cc1nc(C2CCCN(C(=O)COCc3ccccc3Cl)C2)no1 (centres undefined),-43.95
CN1CCN(CCNC(=O)C(OC2CCCC2)c2ccccc2)CC1 (centres undefined),3.323
CCOc1c(F)cccc1C(=O)N(CC)C(C)c1cccnc1 (centres undefined),6.068
CCCN1CCCN(c2ncccc2C(=O)N2CCCCC2)CC1,-46.53
CCOCc1cc(CN2CCn3c(CO)nnc3C2)ccc1OC.O=C(O)CC(O)(CC(=O)O)C(=O)O,-50.73
Cn1ncc2c(=O)[nH]c(CN(Cc3ccco3)C3CC3)nc21,23.89
CC(C)c1nnc2n1CCN(C(=O)c1ccc3cc[nH]c3c1)C2,1.115
O=C(NC1CCS(=O)(=O)C1)c1cn(C2CC2)c(=O)c2ccccc12 (centres undefined),-5.853
CN(C)c1cc(C(=O)NCc2cccnc2-n2cncn2)ccn1,-1.724
Cl.c1cc(OCc2ccc3c(c2)OCCO3)ccc1CNC1CC1,-30.2
CC(=O)N1CCC(C(=O)NCCN2CCCCC2)CC1,-19.79
COCc1cc(CN(C)C(C(=O)O)c2cc(C)c(OC)c(C)c2)n[nH]1 (centres undefined),-31.54
Cc1cc(OCC(=O)NCc2ccc(F)cc2)nnc1C,16.49
CS(=O)(=O)CCCNC(=O)NC1CC(c2cccc(Cl)c2)C1 (centres undefined),-28.83
CS(=O)(=O)c1cncnc1C1CCCN(C(=O)Cc2ccccc2F)C1 (centres undefined),-12.17
CCOc1ccc(-c2cc(CCN)ccc2OC)cc1,-11.79
Cc1nnc(SCC(=O)NCc2ccc3c(c2)CCC(=O)N3)s1,-22.2
Cc1nc(N(C)C)nc(C)c1NC(=O)c1ccccc1C(F)(F)F,-21.42

5 of the entries, repeated:

Compound,Percent Effect
O=C1CSC(c2ccc(O)cc2)c2c(n(C3CCOCC3)[nH]c2=O)N1 (centres undefined),-25.12
Cc1occc1C(=O)N1CC[C@@H](N2CCOCC2)[C@@H]1Cc1ccccc1,21.57
N#Cc1ccc(OC2CCN(CC(=O)NCC3CCCO3)CC2)cc1 (centres undefined),-634.3
CN(C)C(=O)C1(CCCc2ccncc2)CCCN1 (centres undefined),-15.34
CCn1nc(C)c(NC(=O)CN2CC[C@H](CO)[C@@H](O)C2)c1C,-29.26